Source: paper PMC11737852 (2025)
Results are given in words; binding and its absence hold for the method and conditions named. Binding seen in cells or lysates may run through a third protein. Some results given as binding are weak or reduced against the parent protein; the word gives no strength. For some of these results: Tags and fused reporters may be left off the sequences shown.

Amino acid sequences for entries named in this document (tags omitted). A change or cut given only in a name is not applied to a line headed by its entry.
UniProt P45974: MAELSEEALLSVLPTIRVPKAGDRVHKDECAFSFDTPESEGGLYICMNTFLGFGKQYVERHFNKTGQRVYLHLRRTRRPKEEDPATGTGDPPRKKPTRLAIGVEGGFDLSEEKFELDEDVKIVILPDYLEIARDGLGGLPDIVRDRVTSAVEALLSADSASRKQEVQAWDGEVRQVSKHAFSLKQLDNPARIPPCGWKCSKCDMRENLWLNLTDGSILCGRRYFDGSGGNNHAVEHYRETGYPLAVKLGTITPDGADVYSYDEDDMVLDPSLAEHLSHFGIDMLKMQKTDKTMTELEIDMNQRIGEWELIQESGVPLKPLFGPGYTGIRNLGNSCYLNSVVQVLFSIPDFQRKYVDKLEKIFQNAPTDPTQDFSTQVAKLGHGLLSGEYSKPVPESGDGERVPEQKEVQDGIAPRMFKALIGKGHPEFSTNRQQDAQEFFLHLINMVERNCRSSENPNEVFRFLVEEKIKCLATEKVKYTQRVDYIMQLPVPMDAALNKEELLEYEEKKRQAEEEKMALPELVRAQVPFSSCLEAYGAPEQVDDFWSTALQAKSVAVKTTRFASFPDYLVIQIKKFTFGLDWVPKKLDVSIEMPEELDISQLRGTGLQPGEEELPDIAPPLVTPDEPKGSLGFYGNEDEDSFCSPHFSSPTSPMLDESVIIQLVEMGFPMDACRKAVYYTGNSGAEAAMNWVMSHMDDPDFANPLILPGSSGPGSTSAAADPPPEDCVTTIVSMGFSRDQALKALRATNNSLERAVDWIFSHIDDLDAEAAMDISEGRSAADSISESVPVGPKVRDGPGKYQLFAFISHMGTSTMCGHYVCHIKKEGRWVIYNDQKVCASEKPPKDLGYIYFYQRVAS

Experiments:
[1] = target: T1, Flag-IRF3 (UniProt Q14653); assay: proximity ligation; Duolink in situ PLA in HEK293T co-transfected for 24 h with Myc-USP5 and Flag-IRF3 constructs, then SeV (0.1 MOI) for 6 h; mouse anti-Flag and rabbit anti-Myc
T1 sequence: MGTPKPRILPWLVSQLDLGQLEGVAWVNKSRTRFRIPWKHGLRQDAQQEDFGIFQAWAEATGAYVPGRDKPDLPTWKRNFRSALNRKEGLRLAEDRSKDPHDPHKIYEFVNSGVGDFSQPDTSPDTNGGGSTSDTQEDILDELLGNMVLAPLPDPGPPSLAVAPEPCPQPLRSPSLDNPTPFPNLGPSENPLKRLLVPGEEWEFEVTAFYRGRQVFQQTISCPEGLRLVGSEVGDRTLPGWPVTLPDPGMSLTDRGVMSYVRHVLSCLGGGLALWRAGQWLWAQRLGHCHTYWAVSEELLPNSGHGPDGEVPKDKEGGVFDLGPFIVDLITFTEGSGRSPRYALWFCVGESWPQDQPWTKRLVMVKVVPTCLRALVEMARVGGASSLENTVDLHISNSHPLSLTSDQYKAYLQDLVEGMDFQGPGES

[2] = target: T2, IRF3 (endogenous, A549) (human (endogenous in A549)) (UniProt Q14653); assay: proximity ligation; Duolink in situ PLA of endogenous proteins in A549 cells, mouse anti-USP5 and rabbit anti-IRF3, with or without SeV (0.1 MOI) for 6 h
T2 sequence: T1 sequence

[3] = target: T3, IRF3-GlucC (UniProt Q14653); assay: split reporter; bimolecular luminescence complementation (Gaussia luciferase GlucN/GlucC) in HEK293T, 24 h after transfection, with or without poly(I:C) (1 μg/mL) for 6 h; luciferase measured from cell lysates
T3 sequence: T1 sequence

Substance | binding [1] | other results
Myc-USP5 (from UniProt P45974 1-858) (enzyme) | binds | 
Myc-USP5-C335A (from UniProt P45974 1-858) (enzyme) | binds | 
USP5 (endogenous, A549) (from UniProt P45974 1-858) (enzyme) |  | binding [2]: binds
USP5-GlucN (from UniProt P45974 1-858) (enzyme) |  | binding [3]: binds
